Test results published in PubChem BioAssay AID2685 (National Center for Advancing Translational Sciences (NCATS), 2010).
Some of the results follow. Shown are side measurements of this screen, not its main read-out; they come without a call. Most of these compounds were active or inconclusive in the main read-out, so they are no random draw. The note in brackets gives the kind of curve behind each potency; many fits are weak.

Experiment: qHTS Assay for Lipid Storage Modulators in Drosophila S3 Cells;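 for cell number change: cells counted by Cell Tracker Red CMTPX staining in the red channel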
Settings: BODIPY lipid droplet fluorescence, 18-24 h; for cell number change: measured here: cell count max response, cells fed with added oleic acid
How it was run: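 Laser-scanning cytometry quantifies lipid droplet accumulation (500–530 nm total intensity; droplet/cell object ratio) in oleic acid-fed (400 uM added) Drosophila S3 cells treated with a concentration series. 20 uM Triacsin C defined 100% inhibition.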

[1] = measured here: cell number channel AC50, cells fed with added oleic acid
[2] = measured here: lipid fluorescence (Fed channel) AC50, cells fed with added oleic acid

SMILES | cell number change [%] | AC50 [1] | AC50 [2]
Cc1cc(C)c(C(=O)COC(=O)C2CCN(c3ccc(C(F)(F)F)cn3)CC2)cc1C | 37.9 | 18.4 µM [rising, single point] | –
COc1cccc(CCc2nnc(CCC(=O)NC(C)c3c(C)nn(C)c3C)o2)c1 (stereo unspecified) | 11.7 | – | 0.651 µM [falling, full curve]
CC(=O)NCCc1nc2ccccc2n1CCOc1ccccc1C | 39 | – | 29.1 µM [rising, single point]
Cc1ccc(NC2CCCN(C(=O)c3ccoc3C)C2)cc1C (stereo unspecified) | 14.2 | – | 8.2 µM [rising, partial curve]
CC1=Nc2cc(C(=O)NCc3ccco3)ccc2Sc2ccc(C)cc21 | 6.97 | – | 0.92 µM [falling, full curve, poor fit]
O=C1CCCN1c1ccc(C(=O)N(Cc2nnc(-c3ccc(Cl)cc3)o2)C2CC2)cc1 | 36 | 5.8 µM [rising, partial curve, poor fit] | –
Cc1[nH]n(C(N)=S)c(=O)c1C(c1ccccc1)C(C#N)C#N (stereo unspecified) | 83.2 | 18.4 µM [rising, single point] | –
CCOC(=O)N1CCN(S(=O)(=O)c2ccc(OC)c(Br)c2)CC1 | 14.2 | – | 6.51 µM [rising, single point]
CCOCCOC(=O)C1=C(C)N(C)C(=O)NC1c1ccccc1F (stereo unspecified) | -9.89 | – | 29.1 µM [rising, single point]
COc1ccc(NC(=O)CN(C)C(=O)Cc2c(C)nc3ccccc3c2C)cc1 | 65.1 | 23.1 µM [rising, partial curve] | –
Oc1ccc(C23CCCC2C2(CCCC2)c2ccc(O)cc2O3)c(O)c1 (stereo unspecified) | -78 | 29.1 µM [falling, single point] | 0.259 µM [rising, full curve, poor fit]
CCOc1ccc(-c2[nH]ncc2Oc2ccccc2OC)c(O)c1 | -71 | 29.1 µM [falling, single point] | 29.1 µM [falling, single point]
COc1ccc(-c2cn[nH]c2N)c(OC)c1 | – | 3.26 µM [rising, single point] | –
CCc1ccc(-c2cc(C(F)(F)F)n3nc(C(=O)Nc4cnn(Cc5ccc(C)cc5)c4)cc3n2)s1 | -7.68 | – | –
Cc1ccc(/C=C(\CCC(=O)O)c2nc3ccccc3s2)cc1[N+](=O)[O-] | -50 | 1.03 µM [falling, full curve, poor fit] | 4.11 µM [rising, partial curve, poor fit]
Cc1nn2c(N3CCOCC3)cc(C(C)C)nc2c1-c1ccccc1 | 13.9 | – | 18.4 µM [falling, partial curve]
CC(=O)c1c(C)cc(C)c(CSc2nnc(-c3ccco3)o2)c1C | -5.95 | – | –
CCn1nnc(NC(=O)c2cccnc2)n1 | -22.8 | 0.731 µM [falling, full curve, poor fit] | 2.91 µM [falling, full curve]
CC(NC(=O)c1ccc(F)cc1)c1ccc(F)cc1 (stereo unspecified) | -8.78 | – | –
COc1ccccc1N(CN1C(=O)c2ccccc2C1=O)C(=O)c1cccnc1 | -19.5 | – | –
CCOC(=O)c1c[nH][nH]c1=O | -0.23 | – | –

SMILES | cell number change [%] | AC50 [1] | AC50 [2]
CCOC(=O)N1CCN(C(=O)c2ccc(N3CCCC3=O)cc2)CC1 | -34.1 | – | –
O=C(NCc1ccccc1)C1=C[C@H](C2CC2)C[C@H](OCCCCO)O1 | 29.5 | – | 20.6 µM [rising, single point]
COc1ccc(NC(=O)CCCn2c(=O)c3sccc3n(Cc3ccc(C)cc3)c2=O)cc1 | -26.4 | – | 29.1 µM [falling, single point]
NNC(=O)c1nnn(-c2nonc2N)c1CN1CCc2ccccc2C1 | 88.8 | – | –
Cc1cnc(NC(=O)c2ccc(-c3nc4ccccc4s3)o2)s1 | -1.6 | – | 4.61 µM [rising, full curve, poor fit]
O=C(Cc1cc(=O)[nH][nH]1)N/N=C/c1cccc2ccccc12 | 20.4 | – | 29.1 µM [rising, single point]
CCc1nnc(NC(=O)c2ccc(OC)cc2OC)s1 | -2.57 | – | 6.51 µM [rising, single point]
Cc1[nH]c2ccccc2c1C(=O)CN1CCCC1 | -10.6 | – | 32.6 µM [rising, single point]
O=C(N/N=C1\CCCc2ccccc21)c1cccc([N+](=O)[O-])c1 | 49.2 | 2.91 µM [rising, full curve] | –
CCn1c(SCc2nc(-c3ccc(Cl)cc3)no2)nnc1-c1ccco1 | -9.66 | – | 0.0082 µM [falling, full curve, poor fit]
CC(=O)Oc1cc2c(C(C)=O)coc2c2ccccc12 | -3.84 | – | 6.51 µM [falling, single point]
O=C(c1cc2ccccc2oc1=O)N(Cc1ccco1)CC1CCCO1 (stereo unspecified) | 23.7 | – | 16.4 µM [rising, single point]
COc1ccc(Cc2nnc(-c3ccc(F)cc3)o2)cc1OC | – | 0.411 µM [rising, partial curve] | 1.03 µM [rising, partial curve]
COc1ccc(C/C(C)=N\NC(=O)c2c[nH]c3ccccc23)cc1OC | 44.9 | 18.4 µM [rising, single point] | 20.6 µM [rising, single point]
Fc1ccc(NC(=S)NCc2ccc3c(c2)OCO3)cc1 | – | – | 2.91 µM [falling, single point]
CCn1c(=O)cc(SCC(=O)NCc2ccc(C)o2)c2ccccc21 | – | 0.58 µM [falling, single point] | 0.58 µM [falling, single point]
Cc1ccc(C(c2nnnn2C2CCCC2)N2c3ccccc3CC2C)cc1 (stereo unspecified) | -21.4 | – | –
Cc1cc(C)cc(OCC(=O)N2N=C(C(F)(F)F)CC2(O)C(C)(C)C)c1 (stereo unspecified) | – | 5.17 µM [falling, single point] | 7.31 µM [falling, partial curve, poor fit]
COc1ccc(CCNC(=O)CSc2nn(-c3ccccc3)c(=S)s2)cc1 | – | – | 2.59 µM [rising, partial curve]
Cc1ccc(C2=NN=C(NC(=O)C(F)(F)F)SC2)cc1 | 9.7 | – | 11.6 µM [rising, partial curve, poor fit]
COc1ccc(CN2C(=NC(=O)C3CCCO3)SC3CS(=O)(=O)CC32)cc1 (stereo unspecified) | -4.96 | – | –

One compound at a time (already shown).
COc1cccc(CCc2nnc(CCC(=O)NC(C)c3c(C)nn(C)c3C)o2)c1 (stereo unspecified) reads cell number change [%]: 11.7; AC50 [2]: 0.651 µM [falling, full curve]
Cc1cnc(NC(=O)c2ccc(-c3nc4ccccc4s3)o2)s1 reads cell number change [%]: -1.6; AC50 [2]: 4.61 µM [rising, full curve, poor fit]
COc1ccc(CCNC(=O)CSc2nn(-c3ccccc3)c(=S)s2)cc1 reads AC50 [2]: 2.59 µM [rising, partial curve]

More entries

SMILES | cell number change [%] | AC50 [1] | AC50 [2]
CC(=O)N1CCN(S(=O)(=O)c2cccc(C(=O)Nc3nccs3)c2)CC1 | -7.57 | – | 0.651 µM [falling, full curve]
CCOC(=O)CCc1c(C)c2ccc(OC3CCCCC3=O)cc2oc1=O (stereo unspecified) | -39.8 | 14.6 µM [falling, partial curve] | 18.4 µM [falling, partial curve]
CN(C)c1cc[n+](CC(=O)c2cccs2)cc1 | -22.8 | – | 0.731 µM [falling, partial curve, poor fit]
COc1ccccc1OCCNC(=O)c1ccc2c(c1)OCCO2 | – | 1.16 µM [falling, full curve] | –
Cc1ccccc1NC(=O)C1C2C=CC(C3CC23)C1C(=O)O (stereo unspecified) | 29.8 | – | 29.1 µM [rising, single point]
COc1ccc(CCNC(=O)C2CCC(CNc3c(N4CCCC4)c(=O)c3=O)CC2)cc1OC (stereo unspecified) | -2.02 | – | –
O=C(COC(=O)CCC1CCCCC1)Nc1ccc(OC(F)F)cc1 | -73.7 | 20.6 µM [falling, single point] | –
Cc1ccc(CSCC(=O)Nc2c(C)n(C)n(-c3ccccc3)c2=O)cc1 | – | 0.731 µM [rising, full curve, poor fit] | –
Cc1cccc(NC(=S)NC(=O)c2ccc(Br)o2)c1C | 106 | 18.4 µM [rising, partial curve] | 20.6 µM [rising, partial curve]
COc1cc(/C=C2/C(=O)ON=C2c2ccccc2)ccc1O | 1.93 | – | –
CCOc1ccc(C(C)NC(=O)CN2C(=O)NC3(CCCCC3)C2=O)cc1OCC (stereo unspecified) | 7.87 | – | 4.11 µM [falling, single point]
CC(=O)Nc1ccc(S(=O)(=O)Nc2nc(C)cc(-n3nc(C)cc3C)n2)cc1 | 16.3 | – | –
Cc1cc(C)nc(NC(=O)CSc2ncccn2)n1 | 10.6 | – | 1.64 µM [falling, partial curve, poor fit]
Cn1c(SCC(=O)c2c(N)n(C)c(=O)n(C)c2=O)nnc1-c1ccccc1 | 38 | 32.6 µM [rising, single point] | 29.1 µM [rising, single point]
O=[N+]([O-])c1ccc(N2CCN(S(=O)(=O)c3ccccc3)CC2)c2cccnc12 | 5.89 | – | 2.59 µM [rising, single point]
Cc1cccc(N2CCN(C(=O)C3CCN(S(=O)(=O)c4cccnc4)CC3)CC2)c1C | 6.08 | – | 1.46 µM [rising, full curve]
Cc1ccc(OCc2nn3c(-c4n[nH]c5c4CCC5)nnc3s2)cc1 | 18.1 | – | 32.6 µM [rising, partial curve]
CC(=O)N1CCN(S(=O)(=O)c2cccc(C(=O)NC3CCCC3)c2)CC1 | 3.19 | – | 29.1 µM [rising, single point]
Cc1ccc(C(=O)Nc2ccccc2OC(F)F)cc1 | – | 1.3 µM [falling, full curve, poor fit] | 0.13 µM [falling, full curve, poor fit]
COc1ccccc1OCc1nc(C#N)c(N2CCC(C(N)=O)CC2)o1 | 21.8 | – | –
N#Cc1c2c(c(NCc3ccco3)n3c1nc1ccccc13)CCC2 | -0.349 | – | 0.116 µM [rising, partial curve, poor fit]
